Measured values published in ChEMBL document CHEMBL1821705 (J Med Chem, 2011).

Tested on: KARPAS-299
Test: cells
Conditions: Homo sapiens, KARPAS-299, 96 h

- IC50: 4.2 nM
SMILES: C#Cc1cc2c(cc1N1CCN(C3COC3)CC1)C(C)(C)c1[nH]c3cc(C#N)ccc3c1C2=O
